In paper doi:10.1101/2021.05.19.444448:
Read-outs that look alike come from different tables or passages of the source. These are yes or no findings as the source states them, for the method shown. Binding seen in cells or lysates may run through a third protein. A yes stands for co-enrichment or nearness to the bait. Other partners may have been found. For some of these results: No binding means not detected with the bait. Where a sequence is shown, tags or fusion partners need not be part of it.

The chains behind the UniProt entries cited, without tags or fusion partners. Residues count along the entry.
UniProt Q13425: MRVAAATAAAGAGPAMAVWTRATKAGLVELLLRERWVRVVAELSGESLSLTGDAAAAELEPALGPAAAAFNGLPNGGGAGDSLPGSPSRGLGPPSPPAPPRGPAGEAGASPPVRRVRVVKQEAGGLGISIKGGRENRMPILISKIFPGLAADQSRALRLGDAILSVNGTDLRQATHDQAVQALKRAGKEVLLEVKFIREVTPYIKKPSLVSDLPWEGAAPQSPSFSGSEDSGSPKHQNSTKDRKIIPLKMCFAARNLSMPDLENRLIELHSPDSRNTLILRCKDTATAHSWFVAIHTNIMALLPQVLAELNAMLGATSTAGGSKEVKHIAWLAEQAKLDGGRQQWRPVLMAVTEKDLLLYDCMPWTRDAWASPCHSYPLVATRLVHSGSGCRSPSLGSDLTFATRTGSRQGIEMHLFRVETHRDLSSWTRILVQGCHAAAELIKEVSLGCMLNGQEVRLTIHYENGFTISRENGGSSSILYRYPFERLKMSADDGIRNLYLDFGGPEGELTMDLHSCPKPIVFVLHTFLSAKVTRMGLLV
UniProt P0DMV8: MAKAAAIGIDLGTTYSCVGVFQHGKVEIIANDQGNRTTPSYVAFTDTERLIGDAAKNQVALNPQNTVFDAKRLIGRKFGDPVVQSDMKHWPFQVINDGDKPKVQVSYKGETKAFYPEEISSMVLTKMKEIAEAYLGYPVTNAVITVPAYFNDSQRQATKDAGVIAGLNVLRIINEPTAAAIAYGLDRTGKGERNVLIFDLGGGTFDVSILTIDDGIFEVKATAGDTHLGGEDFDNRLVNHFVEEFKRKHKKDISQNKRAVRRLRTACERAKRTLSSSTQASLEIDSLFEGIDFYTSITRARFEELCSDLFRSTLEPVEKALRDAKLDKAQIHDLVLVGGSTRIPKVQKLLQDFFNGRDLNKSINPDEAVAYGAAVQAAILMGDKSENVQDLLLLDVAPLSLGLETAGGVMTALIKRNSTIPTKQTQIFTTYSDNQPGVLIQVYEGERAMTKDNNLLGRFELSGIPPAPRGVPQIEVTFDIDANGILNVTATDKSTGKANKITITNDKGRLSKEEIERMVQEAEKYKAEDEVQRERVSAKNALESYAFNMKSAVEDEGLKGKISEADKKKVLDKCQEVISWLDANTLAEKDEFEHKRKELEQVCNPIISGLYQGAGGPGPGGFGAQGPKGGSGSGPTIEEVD
UniProt Q13263: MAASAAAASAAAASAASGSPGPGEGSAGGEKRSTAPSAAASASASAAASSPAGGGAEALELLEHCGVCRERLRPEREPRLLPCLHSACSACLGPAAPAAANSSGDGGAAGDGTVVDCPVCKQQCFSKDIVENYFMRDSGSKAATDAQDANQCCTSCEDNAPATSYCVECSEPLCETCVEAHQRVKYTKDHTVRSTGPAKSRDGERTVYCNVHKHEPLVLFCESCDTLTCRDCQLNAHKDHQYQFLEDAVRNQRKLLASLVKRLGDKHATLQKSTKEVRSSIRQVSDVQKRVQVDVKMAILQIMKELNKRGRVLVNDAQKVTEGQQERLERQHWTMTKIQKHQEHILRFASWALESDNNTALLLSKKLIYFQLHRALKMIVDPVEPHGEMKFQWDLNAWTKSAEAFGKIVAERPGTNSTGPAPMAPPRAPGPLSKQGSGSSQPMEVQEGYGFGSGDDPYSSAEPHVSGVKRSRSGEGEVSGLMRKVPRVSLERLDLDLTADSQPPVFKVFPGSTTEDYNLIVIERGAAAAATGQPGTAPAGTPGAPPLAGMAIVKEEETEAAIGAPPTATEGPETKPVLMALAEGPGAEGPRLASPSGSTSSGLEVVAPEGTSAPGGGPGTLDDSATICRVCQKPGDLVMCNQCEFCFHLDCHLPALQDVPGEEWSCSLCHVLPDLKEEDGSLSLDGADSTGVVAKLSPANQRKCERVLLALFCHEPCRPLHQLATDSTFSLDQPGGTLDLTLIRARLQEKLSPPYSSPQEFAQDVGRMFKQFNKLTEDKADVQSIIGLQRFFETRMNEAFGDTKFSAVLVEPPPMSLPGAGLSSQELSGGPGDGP
UniProt Q14160: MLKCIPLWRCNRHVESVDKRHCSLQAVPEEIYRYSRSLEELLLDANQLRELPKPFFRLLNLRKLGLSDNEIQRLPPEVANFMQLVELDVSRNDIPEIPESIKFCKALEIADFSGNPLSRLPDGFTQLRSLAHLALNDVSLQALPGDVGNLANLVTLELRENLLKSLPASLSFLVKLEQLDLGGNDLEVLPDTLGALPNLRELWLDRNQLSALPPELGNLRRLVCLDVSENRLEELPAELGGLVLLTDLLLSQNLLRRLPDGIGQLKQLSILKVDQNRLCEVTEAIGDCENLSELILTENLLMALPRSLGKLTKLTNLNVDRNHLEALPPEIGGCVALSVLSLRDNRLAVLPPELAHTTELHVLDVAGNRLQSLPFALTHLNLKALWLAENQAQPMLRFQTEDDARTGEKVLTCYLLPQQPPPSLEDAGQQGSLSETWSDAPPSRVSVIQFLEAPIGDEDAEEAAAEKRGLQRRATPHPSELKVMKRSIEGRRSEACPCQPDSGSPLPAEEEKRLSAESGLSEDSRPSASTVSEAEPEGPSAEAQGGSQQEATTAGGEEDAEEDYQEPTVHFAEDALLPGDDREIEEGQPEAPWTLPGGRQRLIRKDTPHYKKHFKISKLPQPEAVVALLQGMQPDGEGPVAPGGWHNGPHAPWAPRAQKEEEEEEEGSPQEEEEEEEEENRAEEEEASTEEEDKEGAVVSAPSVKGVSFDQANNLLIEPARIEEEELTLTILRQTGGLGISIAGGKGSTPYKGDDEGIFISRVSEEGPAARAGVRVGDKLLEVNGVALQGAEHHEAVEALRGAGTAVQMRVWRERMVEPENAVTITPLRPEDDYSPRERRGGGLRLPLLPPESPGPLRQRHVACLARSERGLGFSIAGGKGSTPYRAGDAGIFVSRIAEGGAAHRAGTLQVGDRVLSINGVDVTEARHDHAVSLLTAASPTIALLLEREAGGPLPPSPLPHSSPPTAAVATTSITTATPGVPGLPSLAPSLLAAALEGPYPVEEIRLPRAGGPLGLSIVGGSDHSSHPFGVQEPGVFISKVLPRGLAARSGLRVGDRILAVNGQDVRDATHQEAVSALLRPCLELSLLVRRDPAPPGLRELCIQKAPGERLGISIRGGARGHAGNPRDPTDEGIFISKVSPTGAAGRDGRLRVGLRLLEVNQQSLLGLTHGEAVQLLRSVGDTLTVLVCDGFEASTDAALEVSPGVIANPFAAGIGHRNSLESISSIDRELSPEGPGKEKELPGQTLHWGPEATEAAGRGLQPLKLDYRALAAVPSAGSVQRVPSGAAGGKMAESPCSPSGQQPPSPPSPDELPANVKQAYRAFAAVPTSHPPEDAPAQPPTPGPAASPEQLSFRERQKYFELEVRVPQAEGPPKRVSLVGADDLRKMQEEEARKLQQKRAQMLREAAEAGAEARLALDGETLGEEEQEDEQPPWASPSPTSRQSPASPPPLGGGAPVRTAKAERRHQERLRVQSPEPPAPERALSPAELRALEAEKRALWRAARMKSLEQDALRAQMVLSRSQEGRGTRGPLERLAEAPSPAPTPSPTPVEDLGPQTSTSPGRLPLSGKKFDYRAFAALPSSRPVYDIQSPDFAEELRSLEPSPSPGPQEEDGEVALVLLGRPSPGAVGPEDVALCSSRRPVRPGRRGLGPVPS
UniProt P17028: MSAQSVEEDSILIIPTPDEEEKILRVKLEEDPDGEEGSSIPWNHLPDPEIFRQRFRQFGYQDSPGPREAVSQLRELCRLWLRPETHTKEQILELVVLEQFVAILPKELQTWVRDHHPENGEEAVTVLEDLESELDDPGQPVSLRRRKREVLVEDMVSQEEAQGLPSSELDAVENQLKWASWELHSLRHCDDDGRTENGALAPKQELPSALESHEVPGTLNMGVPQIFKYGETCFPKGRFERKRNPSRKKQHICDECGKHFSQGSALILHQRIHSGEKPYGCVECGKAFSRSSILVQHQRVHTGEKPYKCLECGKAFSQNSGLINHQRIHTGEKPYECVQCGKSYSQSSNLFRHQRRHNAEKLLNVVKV
UniProt P38646, residues 47-679: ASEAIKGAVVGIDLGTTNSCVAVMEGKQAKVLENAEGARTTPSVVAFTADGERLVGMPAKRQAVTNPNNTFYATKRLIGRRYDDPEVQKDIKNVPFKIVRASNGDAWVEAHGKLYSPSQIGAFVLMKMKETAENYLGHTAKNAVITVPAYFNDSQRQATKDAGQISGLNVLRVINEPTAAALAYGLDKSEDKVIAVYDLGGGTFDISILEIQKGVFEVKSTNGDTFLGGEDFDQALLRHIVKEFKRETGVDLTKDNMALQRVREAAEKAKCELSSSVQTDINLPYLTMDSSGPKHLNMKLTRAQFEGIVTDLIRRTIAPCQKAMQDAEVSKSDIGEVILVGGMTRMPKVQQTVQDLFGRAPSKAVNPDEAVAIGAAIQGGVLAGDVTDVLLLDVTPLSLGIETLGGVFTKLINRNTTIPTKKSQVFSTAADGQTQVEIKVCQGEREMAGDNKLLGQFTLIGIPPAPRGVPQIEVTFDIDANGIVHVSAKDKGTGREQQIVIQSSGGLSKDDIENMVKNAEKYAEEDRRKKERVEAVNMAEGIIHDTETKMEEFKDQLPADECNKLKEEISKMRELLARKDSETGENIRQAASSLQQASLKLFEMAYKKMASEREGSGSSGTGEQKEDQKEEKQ
UniProt P34932: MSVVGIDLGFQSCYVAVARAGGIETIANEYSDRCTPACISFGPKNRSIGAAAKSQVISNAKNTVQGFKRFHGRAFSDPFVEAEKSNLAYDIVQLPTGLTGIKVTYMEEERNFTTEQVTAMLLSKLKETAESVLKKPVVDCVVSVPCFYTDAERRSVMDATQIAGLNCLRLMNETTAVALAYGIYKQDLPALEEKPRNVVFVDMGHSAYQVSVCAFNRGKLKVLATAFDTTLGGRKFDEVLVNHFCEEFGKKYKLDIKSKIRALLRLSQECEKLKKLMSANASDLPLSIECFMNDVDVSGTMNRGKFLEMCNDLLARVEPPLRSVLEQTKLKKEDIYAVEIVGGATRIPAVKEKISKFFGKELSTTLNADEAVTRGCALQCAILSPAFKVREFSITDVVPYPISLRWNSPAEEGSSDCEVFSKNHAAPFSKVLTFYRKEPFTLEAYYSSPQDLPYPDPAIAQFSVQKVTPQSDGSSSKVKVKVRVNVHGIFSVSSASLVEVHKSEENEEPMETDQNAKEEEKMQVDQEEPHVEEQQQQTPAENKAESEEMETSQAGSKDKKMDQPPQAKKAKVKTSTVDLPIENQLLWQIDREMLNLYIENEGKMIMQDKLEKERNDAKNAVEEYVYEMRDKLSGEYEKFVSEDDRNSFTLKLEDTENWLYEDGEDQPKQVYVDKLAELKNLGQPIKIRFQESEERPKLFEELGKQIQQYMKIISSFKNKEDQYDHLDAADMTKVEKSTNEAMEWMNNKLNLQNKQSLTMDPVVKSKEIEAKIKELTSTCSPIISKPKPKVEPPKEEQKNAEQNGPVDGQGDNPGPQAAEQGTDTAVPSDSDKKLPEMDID
UniProt Q92598: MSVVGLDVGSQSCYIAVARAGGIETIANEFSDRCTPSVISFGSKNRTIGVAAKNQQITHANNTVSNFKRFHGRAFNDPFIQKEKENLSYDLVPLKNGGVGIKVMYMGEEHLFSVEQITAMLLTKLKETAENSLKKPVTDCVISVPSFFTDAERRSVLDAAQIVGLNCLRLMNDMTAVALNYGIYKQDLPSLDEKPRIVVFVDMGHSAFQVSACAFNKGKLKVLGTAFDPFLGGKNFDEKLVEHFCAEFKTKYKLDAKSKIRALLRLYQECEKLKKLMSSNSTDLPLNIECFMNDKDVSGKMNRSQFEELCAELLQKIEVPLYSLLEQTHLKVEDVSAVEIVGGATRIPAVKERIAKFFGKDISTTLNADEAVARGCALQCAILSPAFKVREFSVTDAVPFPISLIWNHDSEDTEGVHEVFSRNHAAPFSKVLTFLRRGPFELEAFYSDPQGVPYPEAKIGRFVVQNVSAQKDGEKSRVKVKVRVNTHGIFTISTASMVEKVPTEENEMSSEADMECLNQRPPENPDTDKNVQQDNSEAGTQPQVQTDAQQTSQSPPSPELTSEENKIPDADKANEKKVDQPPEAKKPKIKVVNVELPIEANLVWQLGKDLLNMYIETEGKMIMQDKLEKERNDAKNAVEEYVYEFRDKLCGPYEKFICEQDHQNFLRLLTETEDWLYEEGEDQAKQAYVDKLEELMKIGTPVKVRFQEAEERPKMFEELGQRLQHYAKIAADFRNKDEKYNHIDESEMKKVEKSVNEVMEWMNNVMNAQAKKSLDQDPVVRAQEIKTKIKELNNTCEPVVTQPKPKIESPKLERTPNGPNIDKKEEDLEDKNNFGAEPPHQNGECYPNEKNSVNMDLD

B1: PRDX1 (protein, UniProt Q06830 1-199)
chain: MSSGNAKIGHPAPNFKATAVMPDGQFKDISLSDYKGKYVVFFFYPLDFTFVCPTEIIAFSDRAEEFKKLNCQVIGASVDSHFCHLAWVNTPKKQGGLGPMNIPLVSDPKRTIAQDYGVLKADEGISFRGLFIIDDKGILRQITVNDLPVGRSVDETLRLVQAFQFTDKHGEVCPAGWKPGSDTIKPDVQKSKEYFSKQK
B2: PRDX2 (protein, UniProt P32119 1-198)
chain: MASGNARIGKPAPDFKATAVVDGAFKEVKLSDYKGKYVVLFFYPLDFTFVCPTEIIAFSNRAEDFRKLGCEVLGVSVDSQFTHLAWINTPRKEGGLGPLNIPLLADVTRRLSEDYGVLKTDEGIAYRGLFIIDGKGVLRQITVNDLPVGRSVDEALRLVQAFQYTDEHGEVCPAGWKPGSDTIKPNVDDSKEYFSKHN
B3: PRDX6 (protein, UniProt P30041 1-224)
chain: MPGGLLLGDVAPNFEANTTVGRIRFHDFLGDSWGILFSHPRDFTPVCTTELGRAAKLAPEFAKRNVKLIALSIDSVEDHLAWSKDINAYNCEEPTEKLPFPIIDDRNRELAILLGMLDPAEKDEKGMPVTARVVFVFGPDKKLKLSILYPATTGRNFDEILRVVISLQLTAEKRVATPVDWKDGDSVMVLPTIPEEEAKKLFPKGVFTKELPSGKKYLRYTPQP
B4: thioredoxin (TXN), endogenous in HEK293 (protein, UniProt P10599 1-105)
chain: MVKQIESKTAFQEALDAAGDKLVVVDFSATWCGPCKMIKPFFHSLSEKYSNVIFLEVDVDDCQDVASECEVKCMPTFQFFKKGQKVGEFSGANKEKLEATINELV
B5: Syntrophin beta 1 (SNTB1) (protein, UniProt Q13884 1-538)
chain: MAVAAAAAAAGPAGAGGGRAQRSGLLEVLVRDRWHKVLVNLSEDALVLSSEEGAAAYNGIGTATNGSFCRGAGAGHPGAGGAQPPDSPAGVRTAFTDLPEQVPESISNQKRGVKVLKQELGGLGISIKGGKENKMPILISKIFKGLAADQTQALYVGDAILSVNGADLRDATHDEAVQALKRAGKEVLLEVKYMREATPYVKKGSPVSEIGWETPPPESPRLGGSTSDPPSSQSFSFHRDRKSIPLKMCYVTRSMALADPENRQLEIHSPDAKHTVILRSKDSATAQAWFSAIHSNVNDLLTRVIAEVREQLGKTGIAGSREIRHLGWLAEKVPGESKKQWKPALVVLTEKDLLIYDSMPRRKEAWFSPVHTYPLLATRLVHSGPGKGSPQAGVDLSFATRTGTRQGIETHLFRAETSRDLSHWTRSIVQGCHNSAELIAEISTACTYKNQECRLTIHYENGFSITTEPQEGAFPKTIIQSPYEKLKMSSDDGIRMLYLDFGGKDGEIQLDLHSCPKPIVFIIHSFLSAKITRLGLVA
B6: Catenin alpha like 1 (CTNNAL1) (protein, UniProt Q9UBT7 1-734)
chain: MAASPGPAGVGGAGAVYGSGSSGFALDSGLEIKTRSVEQTLLPLVSQITTLINHKDNTKKSDKTLQAIQRVGQAVNLAVGRFVKVGEAIANENWDLKEEINIACIEAKQAGETIAALTDITNLNHLESDGQITIFTDKTGVIKAARLLLSSVTKVLLLADRVVIKQIITSRNKVLATMERLEKVNSFQEFVQIFSQFGNEMVEFAHLSGDRQNDLKDEKKKAKMAAARAVLEKCTMMLLTASKTCLRHPNCESAHKNKEGVFDRMKVALDKVIEIVTDCKPNGETDISSISIFTGIKEFKMNIEALRENLYFQSKENLSVTLEVILERMEDFTDSAYTSHEHRERILELSTQARMELQQLISVWIQAQSKKTKSIAEELELSILKISHSLNELKKELHSTATQLAADLLKYHADHVVLKALKLTGVEGNLEALAEYACKLSEQKEQLVETCRLLRHISGTEPLEITCIHAEETFQVTGQQIISAAETLTLHPSSKIAKENLDVFCEAWESQISDMSTLLREINDVFEGRRGEKYGYLSLPKPMKNNANLKSLKPDKPDSEEQAKIAKLGLKLGLLTSDADCEIEKWEDQENEIVQYGRNMSSMAYSLYLFTRGEGPLKTSQDLIHQLEVFAAEGLKLTSSVQAFSKQLKDDDKLMLLLEINKLIPLCHQLQTVTKTSLQNKVFLKVDKCITKTRSMMALLVQLLSLCYKLLKKLQMENNGWVSVTNKDTMDSKT

Tests used:
[1] = target: T1, HA-tagged PGBD1 (piggyBac transposable element derived 1) (human) (UniProt Q96JS3); assay: affinity purification with mass spectrometry
T1 sequence: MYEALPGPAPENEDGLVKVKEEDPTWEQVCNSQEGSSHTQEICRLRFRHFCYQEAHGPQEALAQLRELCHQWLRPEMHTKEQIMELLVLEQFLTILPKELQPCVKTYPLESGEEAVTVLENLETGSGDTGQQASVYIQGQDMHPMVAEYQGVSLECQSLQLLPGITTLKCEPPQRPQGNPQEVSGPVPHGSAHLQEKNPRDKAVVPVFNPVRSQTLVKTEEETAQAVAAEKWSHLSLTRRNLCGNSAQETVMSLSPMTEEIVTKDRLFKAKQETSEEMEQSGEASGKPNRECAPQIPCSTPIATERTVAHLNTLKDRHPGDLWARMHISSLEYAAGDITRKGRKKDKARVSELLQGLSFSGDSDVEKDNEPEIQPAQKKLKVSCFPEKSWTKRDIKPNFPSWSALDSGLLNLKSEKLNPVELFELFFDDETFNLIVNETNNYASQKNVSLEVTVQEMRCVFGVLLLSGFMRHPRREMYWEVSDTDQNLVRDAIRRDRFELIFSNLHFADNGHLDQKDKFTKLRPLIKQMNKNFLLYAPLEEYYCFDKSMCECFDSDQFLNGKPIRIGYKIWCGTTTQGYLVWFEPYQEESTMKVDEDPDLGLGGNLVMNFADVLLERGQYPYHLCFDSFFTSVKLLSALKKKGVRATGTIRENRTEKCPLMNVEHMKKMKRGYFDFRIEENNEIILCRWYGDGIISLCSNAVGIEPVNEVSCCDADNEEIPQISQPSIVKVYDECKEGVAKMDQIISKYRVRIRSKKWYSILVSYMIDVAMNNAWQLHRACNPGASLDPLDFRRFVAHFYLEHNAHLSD

[2] = target: T1, HA-tagged PGBD1 (piggyBac transposable element derived 1) (human); assay: affinity purification with mass spectrometry; remark: listed apart in the source

Molecule	binding [1]	binding [2]
Syntrophin beta 2 (SNTB2) (from UniProt Q13425 1-540)	binds	
Dystrophin (DMD) (from UniProt P11532 1-3685)	binds	
HSPA1A (from UniProt P0DMV8 1-641)	binds	
Uthrophin (UTRN) (from UniProt P46939 1-3433)	binds	
TRIM28 (from UniProt Q13263 1-835)	no binding	
HSPA5 (from UniProt P11021 19-654)	binds	
SCRIB (from UniProt Q14160 1-1655)	binds	
ZNF24 (Zn-finger protein 24) (from UniProt P17028 1-368)	binds	
HSPA4L (from UniProt O95757 1-839)	binds	
HSPA9 (from UniProt P38646 47-679)	binds	
HSPA8 (HSC70), endogenous in HEK293 (from UniProt P11142 1-646)	binds	
HSPA4 (from UniProt P34932 1-840)	binds	
HSPH1 (from UniProt Q92598 1-858)	binds	
B1		binds
B2		binds
B3		binds
B4		binds
B5		binds
B6		binds
